From patent publication US20080269102A1, “3-(2-Alkoxycarbonyloxy-Phenyl) Acrylic Acid Esters And Their Use As Precursors For The Delivery Of Olfactory Compounds” (GIVAUDAN SA, priority 2004, published 2008)

Test: Deposition and cleavage of fragrance precursors on cotton towels in a wash/rinse cycle with fabric conditioner
Conditions: for Cleavage [%]: cleavage of protecting group, washing powder containing protease, cellulase and lipase; for Modified Prec. [Depos. %]: protected precursor found on cotton towels after 40° C. wash/rinse cycle and 24 h drying in the dark; for Modified Prec. [Depos. %] / Free prec. [Depos. %]: mean of three towels, % of theory of molar amount applied; for Free prec. [Depos. %]: unprotected precursor found on cotton towels after 40° C. wash/rinse cycle and 24 h drying in the dark

SMILES	Cleavage [%]	Modified Prec. [Depos. %] [%]	Free prec. [Depos. %] [%]
C=CCCCCCCCCOC(=O)C=Cc1ccccc1OC(=O)OCCCCCCCCC=C [Example 4, 3-(2 Dec. 9-enyloxycarbonyloxy-phenyl)acrylic acid dec-9-enyl ester]	68	32	34
C=CCCCCCCCCOC(=O)C=Cc1ccccc1O [Example 2, 3-(2-Hydroxy-phenyl)acrylic acid dec-9-enyl ester]	–	–	46
CC(C)=CCCC(C)CCOC(=O)C=Cc1ccccc1OC(=O)OCCC(C)CCC=C(C)C (centres unmarked) [Example 5, 3-[2-(3,7-Dimethyl-oct-6-enyloxycarbonyloxy)phenyl]acrylic acid 3,7-dimethyl-oct-6-enyl ester]	14	69	11
C=CCCCCCCCCOC(=O)C=Cc1ccccc1OC(=O)OCC [Example 14, 3-(2-Ethoxycarbonyloxy-phenyl)acrylic acid dec-9-enyl ester]	91	5	42
C=CCCCCCCCCOC(=O)C=Cc1ccccc1OC(=O)Oc1ccccc1C=CC(=O)OCCCCCCCCC=C [Example 3]	66	34	66
CCC=CCCOC(=O)Oc1ccccc1C=CC(=O)OCCC(C)CCC=C(C)C (centres unmarked) [Example 6, 3-(2-Hex-3-enyloxycarbonyloxy-phenyl)acrylic acid 3,7-dimethyl-oct-6-enyl ester]	97	2	50
CC(C)=CCCC(C)CCOC(=O)C=Cc1ccccc1O (centres unmarked) [Example 1, 3-(2-Hydroxy-phenyl)acrylic acid 3,7-dimethyl-oct-6-enyl ester]	–	–	45
